The test has as its target MoyR (Rv0792c), GntR family (HutC subfamily) monooxygenase regulator of Mycobacterium tuberculosis (Mycobacterium tuberculosis H37Rv) (UniProt O86331). In words: dynamic light scattering.

Data on one molecule can be found in paper doi:10.1101/2025.08.21.671446 (bioRxiv, 2025).

Results are given in words; binding and its absence hold for the method and conditions named. Where a sequence is shown, tags or fusion partners need not be part of it.

B1: MoyR (Rv0792c), GntR family (HutC subfamily) monooxygenase regulator of Mycobacterium tuberculosis (natural protein)
chain: MTSVKLDLDAADLRISRGSVPASTQLAEALKAQIIQQRLPRGGRLPSERELIDRSGLSRVTVRAAVGMLQRQGWLVRRQGLGTFVADPVEQELSCGVRTITEVLLSCGVTPQVDVLSHQTGPAPQRISETLGLVEVLCIRRRIRTGDQPLALVTAYLPPGVGPAVEPLLSGSADTETTYAMWERRLGVRIAQATHEIHAAGASPDVADALGLAVGSPVLVVDRTSYTNDGKPLEVVVFHHRPERYQFSVTLPRTLPGSGAGIIEKRDFA
As to B1, the binding result was “no binding (condition: at pH 5.5)”.
